Results are given in words; binding and its absence hold for the method and conditions named. In cells and extracts the contact can be indirect. Some entries that bind do so weakly or less than the wild type.
Target: HA-tagged TRPM7 (not stated (human or mouse cDNA cloned)) (UniProt Q923J1)
Test: co-IP; 293-TRPM7 cells induced with tetracycline 1 ug/ml for 24 hrs; HA-TRPM7 precipitated with anti-HA-agarose overnight; blot for endogenous hepatocystin

The chains behind the UniProt entries cited, without tags or fusion partners. Residues count along the entry.
UniProt Q923J1: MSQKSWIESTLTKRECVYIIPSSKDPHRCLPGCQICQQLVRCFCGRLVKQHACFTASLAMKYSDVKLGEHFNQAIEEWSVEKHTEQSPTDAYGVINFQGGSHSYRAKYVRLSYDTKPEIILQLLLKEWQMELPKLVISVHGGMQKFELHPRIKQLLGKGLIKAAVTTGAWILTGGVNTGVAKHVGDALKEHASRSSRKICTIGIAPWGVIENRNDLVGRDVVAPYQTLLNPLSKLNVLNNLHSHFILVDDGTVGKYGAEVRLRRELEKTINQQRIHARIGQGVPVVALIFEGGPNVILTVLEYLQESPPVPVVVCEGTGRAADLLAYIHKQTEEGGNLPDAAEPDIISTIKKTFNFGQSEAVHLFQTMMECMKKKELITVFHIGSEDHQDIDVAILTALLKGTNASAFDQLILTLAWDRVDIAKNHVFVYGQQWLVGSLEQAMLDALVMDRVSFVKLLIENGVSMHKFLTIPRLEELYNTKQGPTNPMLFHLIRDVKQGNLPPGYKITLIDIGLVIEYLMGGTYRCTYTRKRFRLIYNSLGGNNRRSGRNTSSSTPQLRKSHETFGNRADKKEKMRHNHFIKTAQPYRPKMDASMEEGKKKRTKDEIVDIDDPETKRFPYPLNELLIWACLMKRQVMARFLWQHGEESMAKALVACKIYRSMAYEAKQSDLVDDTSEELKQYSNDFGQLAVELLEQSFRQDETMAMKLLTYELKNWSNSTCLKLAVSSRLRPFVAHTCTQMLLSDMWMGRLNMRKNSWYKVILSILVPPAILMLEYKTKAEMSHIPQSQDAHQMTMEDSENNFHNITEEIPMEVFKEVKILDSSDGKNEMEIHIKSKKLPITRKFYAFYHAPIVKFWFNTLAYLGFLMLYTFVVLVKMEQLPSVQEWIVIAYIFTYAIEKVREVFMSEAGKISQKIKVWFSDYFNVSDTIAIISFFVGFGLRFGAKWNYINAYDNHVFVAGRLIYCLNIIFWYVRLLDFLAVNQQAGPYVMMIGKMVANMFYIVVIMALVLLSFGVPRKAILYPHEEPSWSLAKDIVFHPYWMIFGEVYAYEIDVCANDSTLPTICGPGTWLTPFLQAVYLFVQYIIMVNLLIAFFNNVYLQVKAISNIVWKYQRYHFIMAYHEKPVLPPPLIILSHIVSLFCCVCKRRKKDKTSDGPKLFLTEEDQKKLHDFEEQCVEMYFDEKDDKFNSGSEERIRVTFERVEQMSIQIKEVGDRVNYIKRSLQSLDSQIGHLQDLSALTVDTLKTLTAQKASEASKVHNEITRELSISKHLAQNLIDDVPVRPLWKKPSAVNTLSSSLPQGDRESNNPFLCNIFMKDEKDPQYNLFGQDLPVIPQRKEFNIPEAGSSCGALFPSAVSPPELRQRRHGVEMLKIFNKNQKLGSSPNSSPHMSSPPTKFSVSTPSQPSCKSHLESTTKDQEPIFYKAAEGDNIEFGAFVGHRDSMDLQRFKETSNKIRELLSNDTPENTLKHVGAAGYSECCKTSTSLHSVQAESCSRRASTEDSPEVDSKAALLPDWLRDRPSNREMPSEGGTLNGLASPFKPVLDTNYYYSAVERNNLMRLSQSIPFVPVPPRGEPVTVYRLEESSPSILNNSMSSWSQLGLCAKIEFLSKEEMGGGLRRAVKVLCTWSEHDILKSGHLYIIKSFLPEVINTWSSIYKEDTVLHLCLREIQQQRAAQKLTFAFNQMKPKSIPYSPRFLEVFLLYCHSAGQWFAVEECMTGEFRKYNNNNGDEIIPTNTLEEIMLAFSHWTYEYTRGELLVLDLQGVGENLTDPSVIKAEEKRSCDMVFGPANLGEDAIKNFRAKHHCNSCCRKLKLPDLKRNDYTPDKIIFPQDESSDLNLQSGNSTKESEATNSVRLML
UniProt P14314, residues 15-528: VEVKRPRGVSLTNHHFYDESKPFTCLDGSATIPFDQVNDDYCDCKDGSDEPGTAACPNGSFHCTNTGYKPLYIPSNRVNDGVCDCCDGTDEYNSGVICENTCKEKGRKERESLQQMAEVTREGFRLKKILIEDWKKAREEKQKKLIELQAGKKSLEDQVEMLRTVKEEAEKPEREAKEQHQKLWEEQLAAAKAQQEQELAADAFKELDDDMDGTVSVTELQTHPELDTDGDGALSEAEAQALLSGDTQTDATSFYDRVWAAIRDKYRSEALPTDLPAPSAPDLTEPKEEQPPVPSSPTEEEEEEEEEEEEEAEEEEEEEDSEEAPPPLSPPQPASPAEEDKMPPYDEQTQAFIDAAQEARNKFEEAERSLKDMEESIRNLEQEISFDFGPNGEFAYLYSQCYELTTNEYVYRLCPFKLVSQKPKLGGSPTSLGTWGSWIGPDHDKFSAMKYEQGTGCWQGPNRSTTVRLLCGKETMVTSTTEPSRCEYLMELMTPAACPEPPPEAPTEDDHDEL

binding: binds
Substance: endogenous hepatocystin (from UniProt P14314 15-528)
